Assay results: US8895695B2 (priority 2003, dated 2014)

Test: general procedure: Fmoc solid-phase peptide synthesis; Fmoc-ProO-chlorotritylresin, Fmoc-DProO-chlorotritylresin, Fmoc-S-(4-S-Alloc-amino)-ProO-chlorotritylresin
Settings: whole synthesis, scale of the general procedure 60 mg resin per vessel

Q: With “Tyr-Arg-Cit-Phe-Arg-Cit-Pro-Arg-Arg-2-Nal-Val-Tyr-Cit-Lys-^DPro^LPro” as the substance, how does the “final purity (method not given)” value read?
A: The value was 100%.

Q: Which “final purity (method not given)” value does the source give for “Tyr-Arg-Cit-Phe-Arg-Cit-^DPro-Arg-Arg-2-Nal-Phe-Tyr-Cit-Lys-^DPro^LPro” here?
A: The value was 100%.

Q: With “Tyr-Arg-Cit-Phe-Arg-Cit-^DPro-Arg-Arg-2-Nal-Val-Tyr-Cit-Lys-^DPro^LPro” as the substance, how does the “final purity (method not given)” value read?
A: Its value is 100%.

Q: With “Tyr-Arg-Cit-Phe-Arg-Gly-Gly-Arg-Arg-2-Nal-Phe-Tyr-Cit-Lys-^DPro^LPro” as the substance, how does the “final purity (method not given)” value read?
A: The value was 100%.

Q: For “Tyr-Arg-Cit-Phe-Arg-Gly-^DPro-Arg-Arg-2-Nal-Phe-Tyr-Cit-Lys-^DPro^LPro”, which “final purity (method not given)” value is on record?
A: Its value is 100%.

Q: For “Tyr-Arg-Cit-Phe-Arg-Phe-Pro-Arg-Arg-2-Nal-Phe-Tyr-Cit-Lys-^DPro^LPro”, which “final purity (method not given)” value is on record?
A: Its value is 100%.

Q: With “Tyr-Arg-Cit-Phe-Arg-Phe-Pro-Arg-Arg-2-Nal-Val-Tyr-Cit-Lys-^DPro^LPro” as the substance, how does the “final purity (method not given)” value read?
A: Its value is 100%.

Q: Which “final purity (method not given)” value does the source give for “Tyr-Arg-Cit-Phe-Arg-Phe-^DPro-Arg-Arg-2-Nal-Phe-Tyr-Cit-Lys-^DPro^LPro” here?
A: Its value is 100%.

Q: For “Tyr-Arg-Cit-Phe-Arg-Phe-^DPro-Arg-Arg-2-Nal-Val-Tyr-Cit-Lys-^DPro^LPro”, which “final purity (method not given)” value is on record?
A: The value was 100%.

Q: Which “final purity (method not given)” value does the source give for “Tyr-Arg-Cit-Phe-Arg-Val-Gly-Arg-Arg-2-Nal-Phe-Tyr-Cit-Lys-^DPro^LPro” here?
A: The value was 92%.

Q: With “Tyr-Arg-Cit-Phe-Arg-Val-Pro-Arg-Arg-2-Nal-Phe-Tyr-Cit-Lys-^DPro^LPro” as the substance, how does the “final purity (method not given)” value read?
A: The value was 100%.

Q: Which “final purity (method not given)” value does the source give for “Tyr-Arg-Cit-Phe-Arg-Val-Pro-Arg-Arg-2-Nal-Val-Tyr-Cit-Lys-^DPro^LPro” here?
A: Its value is 100%.

Q: For “Tyr-Arg-Cit-Phe-Arg-Val-^DPro-Arg-Arg-2-Nal-Phe-Tyr-Cit-Lys-^DPro^LPro”, which “final purity (method not given)” value is on record?
A: The value was 100%.

Q: Which “final purity (method not given)” value does the source give for “Tyr-Arg-Cit-Phe-Arg-Val-^DPro-Arg-Arg-2-Nal-Val-Tyr-Cit-Lys-^DPro^LPro” here?
A: The value was 99%.

Q: With “Tyr-Arg-Cit-Ser-Arg-Gly-^DPro-Arg-Arg-Trp-Asn-Tyr-Cit-Lys-^DPro^LPro” as the substance, how does the “final purity (method not given)” value read?
A: Its value is 67%.

Q: Which “final purity (method not given)” value does the source give for “Tyr-Arg-Cit-Tyr-Arg-Val-Gly-Arg-Arg-2-Nal-Tyr-Tyr-Cit-Lys-^DPro^LPro” here?
A: The value was 99%.

Q: With “Tyr-Arg-Cit-Val-Arg-Cit-Pro-Arg-Arg-2-Nal-Phe-Tyr-Cit-Lys-^DPro^LPro” as the substance, how does the “final purity (method not given)” value read?
A: The value was 100%.

Q: Which “final purity (method not given)” value does the source give for “Tyr-Arg-Cit-Val-Arg-Cit-Pro-Arg-Arg-2-Nal-Val-Tyr-Cit-Lys-^DPro^LPro” here?
A: Its value is 100%.

Q: With “Tyr-Arg-Cit-Val-Arg-Cit-^DPro-Arg-Arg-2-Nal-Val-Tyr-Cit-Lys-^DPro^LPro” as the substance, how does the “final purity (method not given)” value read?
A: The value was 100%.

Q: For “Tyr-Arg-Cit-Val-Arg-Gly-Gly-Arg-Arg-2-Nal-Val-Tyr-Cit-Lys-^DPro^LPro”, which “final purity (method not given)” value is on record?
A: Its value is 95%.

Q: Which “final purity (method not given)” value does the source give for “Tyr-Arg-Cit-Val-Arg-Gly-^DPro-Arg-Arg-2-Nal-Val-Tyr-Cit-Lys-^DPro^LPro” here?
A: Its value is 100%.

Q: Which “final purity (method not given)” value does the source give for “Tyr-Arg-Cit-Val-Arg-Phe-Pro-Arg-Arg-2-Nal-Phe-Tyr-Cit-Lys-^DPro^LPro” here?
A: The value was 100%.

Q: With “Tyr-Arg-Cit-Val-Arg-Phe-Pro-Arg-Arg-2-Nal-Val-Tyr-Cit-Lys-^DPro^LPro” as the substance, how does the “final purity (method not given)” value read?
A: Its value is 100%.

Q: For “Tyr-Arg-Cit-Val-Arg-Phe-^DPro-Arg-Arg-2-Nal-Phe-Tyr-Cit-Lys-^DPro^LPro”, which “final purity (method not given)” value is on record?
A: Its value is 100%.

Q: For “Tyr-Arg-Cit-Val-Arg-Phe-^DPro-Arg-Arg-2-Nal-Val-Tyr-Cit-Lys-^DPro^LPro”, which “final purity (method not given)” value is on record?
A: Its value is 100%.

Q: With “Tyr-Arg-Cit-Val-Arg-Pro-Val-Arg-Arg-2-Nal-Val-Tyr-Cit-Lys-^DPro^LPro” as the substance, how does the “final purity (method not given)” value read?
A: Its value is 93%.

Q: With “Tyr-Arg-Cit-Val-Arg-Val-Gly-Arg-Arg-2-Nal-Val-Tyr-Cit-Lys-^DPro^LPro” as the substance, how does the “final purity (method not given)” value read?
A: Its value is 100%.

Q: Which “final purity (method not given)” value does the source give for “Tyr-Arg-Cit-Val-Arg-Val-Pro-Arg-Arg-2-Nal-Phe-Tyr-Cit-Lys-^DPro^LPro” here?
A: Its value is 100%.

Q: Which “final purity (method not given)” value does the source give for “Tyr-Arg-Cit-Val-Arg-Val-Pro-Arg-Arg-2-Nal-Val-Tyr-Cit-Lys-^DPro^LPro” here?
A: Its value is 100%.

Q: Which “final purity (method not given)” value does the source give for “Tyr-Arg-Cit-Val-Arg-Val-^DPro-Arg-Arg-2-Nal-Phe-Tyr-Cit-Lys-^DPro^LPro” here?
A: Its value is 100%.

Q: With “Tyr-Arg-Cit-Val-Arg-Val-^DPro-Arg-Arg-2-Nal-Val-Tyr-Cit-Lys-^DPro^LPro” as the substance, how does the “final purity (method not given)” value read?
A: Its value is 100%.

Q: Which “final purity (method not given)” value does the source give for “Tyr-Arg-Cit-t-BuG-Arg-Gly-Gly-Arg-Arg-2-Nal-t-BuG-Tyr-Cit-Lys-^DPro^LPro” here?
A: Its value is 93%.

Q: Which “final purity (method not given)” value does the source give for “Tyr-Arg-Cit-t-BuG-Arg-Pro-Val-Arg-Arg-2-Nal-t-BuG-Tyr-Cit-Lys-^DPro^LPro” here?
A: The value was 98%.

Q: With “Tyr-Arg-Cit-t-BuG-Arg-Val-Gly-Arg-Arg-2-Nal-t-BuG-Tyr-Cit-Lys-^DPro^LPro” as the substance, how does the “final purity (method not given)” value read?
A: Its value is 93%.

Q: With “Tyr-Arg-Gln-Cys-Arg-Gly-^DPro-Arg-Arg-2-Nal-Cys-Tyr-Cit-Lys-^DPro^LPro” as the substance, how does the “final purity (method not given)” value read?
A: The value was 79%.

Q: With “Tyr-Arg-Glu-Cys-Arg-Gly-^DPro-Arg-Arg-2-Nal-Cys-Tyr-Gln-Lys-^DPro^LPro” as the substance, how does the “final purity (method not given)” value read?
A: Its value is 95%.

Q: With “Tyr-Arg-His-Cys-Arg-Gly-^DPro-Arg-Arg-2-Nal-Cys-Tyr-Gln-Lys-^DPro^LPro” as the substance, how does the “final purity (method not given)” value read?
A: Its value is 95%.

Q: For “Tyr-Arg-Ile-Cys-Arg-Gly-^DPro-Arg-Arg-2-Nal-Cys-Tyr-Gln-Lys-^DPro^LPro”, which “final purity (method not given)” value is on record?
A: Its value is 95%.

Q: With “Tyr-Arg-Ile-Cys-Arg-Gly-^DPro-Arg-Arg-Tyr-Cys-Tyr-Gln-Lys-^DPro^LPro” as the substance, how does the “final purity (method not given)” value read?
A: Its value is 92%.

Q: For “Tyr-Arg-Leu-Cys-Arg-Gly-^DPro-Arg-Arg-2-Nal-Cys-Tyr-Gln-Lys-^DPro^LPro”, which “final purity (method not given)” value is on record?
A: Its value is 95%.

Q: Which “final purity (method not given)” value does the source give for “Tyr-Arg-Lys-Cys-Arg-Gly-^DPro-Arg-Arg-2-Nal-Cys-Tyr-Gln-Lys-^DPro^LPro” here?
A: Its value is 95%.

Q: With “Tyr-Arg-Met-Cys-Arg-Gly-^DPro-Arg-Arg-2-Nal-Cys-Tyr-Gln-Lys-^DPro^LPro” as the substance, how does the “final purity (method not given)” value read?
A: Its value is 95%.

Q: With “Tyr-Arg-Pro-Cys-Arg-Gly-^DPro-Arg-Arg-2-Nal-Cys-Tyr-Gln-Lys-^DPro^LPro” as the substance, how does the “final purity (method not given)” value read?
A: The value was 95%.

Q: With “Tyr-Arg-Ser-Cys-Arg-Gly-^DPro-Arg-Arg-2-Nal-Cys-Tyr-Gln-Lys-^DPro^LPro” as the substance, how does the “final purity (method not given)” value read?
A: Its value is 95%.

Q: For “Tyr-Arg-Ser-Cys-Arg-Gly-^DPro-Arg-Arg-Trp-Cys-Tyr-Cit-Asp-^DPro^LPro”, which “final purity (method not given)” value is on record?
A: The value was 95%.

Q: For “Tyr-Arg-Thr-Cys-Arg-Gly-^DPro-4-PyrAla-Arg-Trp-Cys-Tyr-Gln-Lys-^DPro^LPro”, which “final purity (method not given)” value is on record?
A: The value was 95%.

Q: Which “final purity (method not given)” value does the source give for “Tyr-Arg-Thr-Cys-Arg-Gly-^DPro-Arg-Arg-2-Nal-Cys-Tyr-Cit-Lys-^DPro^LPro” here?
A: The value was 98%.

Q: With “Tyr-Arg-Thr-Cys-Arg-Gly-^DPro-Arg-Arg-Tyr-Cys-Tyr-Cit-Lys-^DPro^LPro” as the substance, how does the “final purity (method not given)” value read?
A: Its value is 95%.

Q: With “Tyr-Arg-Thr-Cys-Arg-Gly-^DPro-Arg-Arg-Tyr-Cys-Tyr-Gln-Lys-^DPro^LPro” as the substance, how does the “final purity (method not given)” value read?
A: The value was 95%.

Q: With “Tyr-Arg-Thr-Cys-Arg-Gly-^DPro-Dab-Arg-2-Nal-Cys-Tyr-Gln-Lys-^DPro^LPro” as the substance, how does the “final purity (method not given)” value read?
A: Its value is 95%.

Q: For “Tyr-Arg-Thr-Cys-Arg-Gly-^DPro-Dab-Arg-Trp-Cys-Tyr-Gln-Lys-^DPro^LPro”, which “final purity (method not given)” value is on record?
A: Its value is 95%.

Q: With “Tyr-Arg-Trp-Cys-Arg-Gly-^DPro-Arg-Arg-2-Nal-Cys-Tyr-Gln-Lys-^DPro^LPro” as the substance, how does the “final purity (method not given)” value read?
A: The value was 95%.

Q: With “Tyr-Arg-Tyr-Cys-Arg-Gly-^DPro-Arg-Arg-2-Nal-Cys-Tyr-Gln-Lys-^DPro^LPro” as the substance, how does the “final purity (method not given)” value read?
A: Its value is 95%.

Q: For “Tyr-Arg-Tyr-Cys-Arg-Gly-^DPro-Arg-Arg-Tyr-Cys-Tyr-Gln-Lys-^DPro^LPro”, which “final purity (method not given)” value is on record?
A: The value was 91%.

Q: For “Tyr-Arg-Val-Cys-Arg-Gly-^DPro-Arg-Arg-2-Nal-Cys-Tyr-Gln-Lys-^DPro^LPro”, which “final purity (method not given)” value is on record?
A: Its value is 95%.

Q: With “Tyr-His-Cit-Cys-Arg-Gly-^DPro-Arg-Arg-Trp-Cys-Tyr-Cit-Lys-^DPro^LPro” as the substance, how does the “final purity (method not given)” value read?
A: Its value is 95%.

Q: For “Tyr-His-Thr-Cys-Arg-Gly-^DPro-Arg-His-Trp-Cys-Tyr-Gln-Lys-^DPro^LPro”, which “final purity (method not given)” value is on record?
A: Its value is 95%.

Q: With “Tyr-Lys-Cit-Cys-Arg-Gly-^DPro-Arg-Arg-Trp-Cys-Tyr-Cit-Lys-^DPro^LPro” as the substance, how does the “final purity (method not given)” value read?
A: Its value is 95%.

Q: Which “final purity (method not given)” value does the source give for “Val-Arg-Cit-Cys-Arg-Gly-^DPro-Arg-Arg-2-Nal-Cys-Tyr-Gln-Lys-^DPro^LPro” here?
A: Its value is 95%.
